Results reported in the supplement of paper PMC6411743.
± gives the standard deviation of the averaged measurements. This is a selection; strong and weak results do not stand in their true shares.

The chains behind the UniProt entries cited, without tags or fusion partners. Where a name states a change or a piece, a line headed by the entry shows the natural chain unless it says otherwise.
UniProt Q96RQ3: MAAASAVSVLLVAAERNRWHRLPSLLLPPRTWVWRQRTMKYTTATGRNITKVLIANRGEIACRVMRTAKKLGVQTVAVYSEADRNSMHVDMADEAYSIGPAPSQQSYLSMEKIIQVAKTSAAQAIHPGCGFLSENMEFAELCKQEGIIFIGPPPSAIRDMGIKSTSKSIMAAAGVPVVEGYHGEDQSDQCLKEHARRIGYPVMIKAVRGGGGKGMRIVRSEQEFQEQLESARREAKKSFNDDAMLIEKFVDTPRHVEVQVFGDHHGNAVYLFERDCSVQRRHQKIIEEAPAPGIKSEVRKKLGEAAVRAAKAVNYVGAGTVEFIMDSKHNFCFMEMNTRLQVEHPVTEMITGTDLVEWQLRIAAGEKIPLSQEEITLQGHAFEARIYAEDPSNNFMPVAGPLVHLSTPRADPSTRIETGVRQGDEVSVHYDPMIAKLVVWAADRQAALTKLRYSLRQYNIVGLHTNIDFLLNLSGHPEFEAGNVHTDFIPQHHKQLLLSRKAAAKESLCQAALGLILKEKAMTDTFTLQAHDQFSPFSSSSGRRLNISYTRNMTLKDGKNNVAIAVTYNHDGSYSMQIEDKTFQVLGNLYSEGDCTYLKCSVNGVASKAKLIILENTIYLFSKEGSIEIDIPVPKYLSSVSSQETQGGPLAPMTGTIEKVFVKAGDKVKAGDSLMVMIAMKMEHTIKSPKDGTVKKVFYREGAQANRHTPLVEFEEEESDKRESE
UniProt Q96PU4: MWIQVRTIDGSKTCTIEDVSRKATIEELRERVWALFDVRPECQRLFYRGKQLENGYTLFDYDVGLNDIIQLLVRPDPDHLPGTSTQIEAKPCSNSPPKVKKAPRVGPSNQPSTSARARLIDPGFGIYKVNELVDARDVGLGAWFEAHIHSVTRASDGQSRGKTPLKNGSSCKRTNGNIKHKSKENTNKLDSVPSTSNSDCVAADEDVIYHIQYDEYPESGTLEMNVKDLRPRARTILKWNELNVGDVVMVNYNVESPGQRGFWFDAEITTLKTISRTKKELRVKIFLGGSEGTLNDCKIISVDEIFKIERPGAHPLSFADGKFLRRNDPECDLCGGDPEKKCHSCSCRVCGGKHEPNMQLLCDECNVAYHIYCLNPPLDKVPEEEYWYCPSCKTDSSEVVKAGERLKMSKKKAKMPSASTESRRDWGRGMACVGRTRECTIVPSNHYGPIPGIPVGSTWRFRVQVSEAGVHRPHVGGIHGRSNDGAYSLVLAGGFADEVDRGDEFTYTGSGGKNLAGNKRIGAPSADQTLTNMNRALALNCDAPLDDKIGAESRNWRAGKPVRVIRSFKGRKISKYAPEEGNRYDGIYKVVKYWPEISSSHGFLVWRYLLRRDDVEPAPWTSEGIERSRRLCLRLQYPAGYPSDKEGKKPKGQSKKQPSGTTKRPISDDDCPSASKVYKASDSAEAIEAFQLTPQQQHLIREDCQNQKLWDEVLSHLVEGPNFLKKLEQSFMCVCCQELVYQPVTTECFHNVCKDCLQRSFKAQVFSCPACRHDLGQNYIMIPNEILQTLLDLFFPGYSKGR
UniProt Q96CS2: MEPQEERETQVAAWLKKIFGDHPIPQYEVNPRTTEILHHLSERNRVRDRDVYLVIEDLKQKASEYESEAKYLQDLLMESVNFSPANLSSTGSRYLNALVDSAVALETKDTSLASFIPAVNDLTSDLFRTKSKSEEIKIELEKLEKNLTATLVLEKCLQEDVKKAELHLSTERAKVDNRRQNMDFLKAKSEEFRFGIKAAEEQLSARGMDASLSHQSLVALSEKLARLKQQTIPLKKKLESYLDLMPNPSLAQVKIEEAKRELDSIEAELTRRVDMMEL
UniProt Q96FX2: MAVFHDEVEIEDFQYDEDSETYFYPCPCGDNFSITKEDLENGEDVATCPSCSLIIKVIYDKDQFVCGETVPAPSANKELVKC
UniProt Q96JJ7: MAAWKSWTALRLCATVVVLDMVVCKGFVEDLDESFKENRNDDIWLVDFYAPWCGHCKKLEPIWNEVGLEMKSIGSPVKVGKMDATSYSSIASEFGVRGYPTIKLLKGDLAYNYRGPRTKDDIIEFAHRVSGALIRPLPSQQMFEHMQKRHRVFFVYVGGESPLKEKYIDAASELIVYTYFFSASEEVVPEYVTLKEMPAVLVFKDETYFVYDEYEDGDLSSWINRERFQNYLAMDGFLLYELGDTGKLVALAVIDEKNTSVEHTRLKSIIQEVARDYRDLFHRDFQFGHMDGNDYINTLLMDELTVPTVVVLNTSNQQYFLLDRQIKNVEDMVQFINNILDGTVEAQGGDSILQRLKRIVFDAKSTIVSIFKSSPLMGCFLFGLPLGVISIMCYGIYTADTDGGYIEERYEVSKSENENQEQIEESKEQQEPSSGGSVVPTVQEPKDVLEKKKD
UniProt Q96EY8: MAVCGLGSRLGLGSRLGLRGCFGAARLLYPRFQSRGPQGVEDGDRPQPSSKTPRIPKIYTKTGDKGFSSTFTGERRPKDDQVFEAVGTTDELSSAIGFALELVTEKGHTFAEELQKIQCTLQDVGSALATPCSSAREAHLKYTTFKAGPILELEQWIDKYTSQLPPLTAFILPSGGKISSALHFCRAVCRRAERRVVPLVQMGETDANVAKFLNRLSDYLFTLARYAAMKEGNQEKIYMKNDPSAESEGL
UniProt Q96MX6, whole entry: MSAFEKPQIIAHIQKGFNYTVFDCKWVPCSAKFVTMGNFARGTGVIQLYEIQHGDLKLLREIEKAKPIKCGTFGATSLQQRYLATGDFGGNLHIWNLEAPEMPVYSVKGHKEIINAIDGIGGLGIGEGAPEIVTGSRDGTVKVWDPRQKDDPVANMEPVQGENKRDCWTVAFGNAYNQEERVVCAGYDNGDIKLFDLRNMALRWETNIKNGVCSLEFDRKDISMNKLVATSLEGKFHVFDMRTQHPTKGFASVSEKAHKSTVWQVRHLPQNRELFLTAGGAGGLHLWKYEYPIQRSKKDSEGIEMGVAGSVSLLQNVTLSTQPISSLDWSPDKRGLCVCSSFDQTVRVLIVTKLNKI
UniProt Q96KC2: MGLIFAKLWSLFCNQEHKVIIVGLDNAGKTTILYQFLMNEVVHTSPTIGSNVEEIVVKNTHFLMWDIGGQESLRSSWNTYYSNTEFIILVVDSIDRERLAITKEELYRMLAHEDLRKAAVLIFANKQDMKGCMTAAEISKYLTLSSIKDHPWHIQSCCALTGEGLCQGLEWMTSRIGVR
UniProt Q96PM5: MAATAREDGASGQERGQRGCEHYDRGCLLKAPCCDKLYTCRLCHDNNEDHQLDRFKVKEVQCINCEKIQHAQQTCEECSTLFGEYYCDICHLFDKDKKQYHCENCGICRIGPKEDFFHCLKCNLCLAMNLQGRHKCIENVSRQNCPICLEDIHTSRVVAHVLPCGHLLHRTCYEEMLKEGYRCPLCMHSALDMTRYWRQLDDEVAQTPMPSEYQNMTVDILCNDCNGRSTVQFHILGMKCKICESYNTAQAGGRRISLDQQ
UniProt Q96JG6: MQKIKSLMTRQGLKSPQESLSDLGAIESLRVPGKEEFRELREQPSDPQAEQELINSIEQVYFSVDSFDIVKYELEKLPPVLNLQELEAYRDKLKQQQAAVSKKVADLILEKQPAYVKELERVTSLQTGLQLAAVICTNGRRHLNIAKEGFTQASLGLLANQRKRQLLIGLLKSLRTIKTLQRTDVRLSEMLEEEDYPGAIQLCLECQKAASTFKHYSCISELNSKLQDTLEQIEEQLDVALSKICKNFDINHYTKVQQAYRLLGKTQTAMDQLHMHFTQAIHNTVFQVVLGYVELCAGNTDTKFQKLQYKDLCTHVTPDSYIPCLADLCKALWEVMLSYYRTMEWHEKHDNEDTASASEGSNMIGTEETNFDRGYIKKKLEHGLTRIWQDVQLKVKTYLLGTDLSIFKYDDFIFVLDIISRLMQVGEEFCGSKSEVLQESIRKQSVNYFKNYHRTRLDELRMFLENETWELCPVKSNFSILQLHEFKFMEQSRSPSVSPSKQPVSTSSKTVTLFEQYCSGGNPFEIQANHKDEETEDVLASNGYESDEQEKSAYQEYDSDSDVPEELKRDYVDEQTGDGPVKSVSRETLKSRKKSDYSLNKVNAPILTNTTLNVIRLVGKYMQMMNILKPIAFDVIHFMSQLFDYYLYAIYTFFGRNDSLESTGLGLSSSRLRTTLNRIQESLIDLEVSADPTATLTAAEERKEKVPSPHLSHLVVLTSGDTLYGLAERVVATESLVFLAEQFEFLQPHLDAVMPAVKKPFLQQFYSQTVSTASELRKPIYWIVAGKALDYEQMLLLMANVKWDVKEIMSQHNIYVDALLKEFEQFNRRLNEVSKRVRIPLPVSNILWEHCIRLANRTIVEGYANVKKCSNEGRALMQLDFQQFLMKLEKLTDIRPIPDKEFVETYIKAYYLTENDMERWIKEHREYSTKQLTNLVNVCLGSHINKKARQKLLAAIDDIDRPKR
UniProt Q96DI7: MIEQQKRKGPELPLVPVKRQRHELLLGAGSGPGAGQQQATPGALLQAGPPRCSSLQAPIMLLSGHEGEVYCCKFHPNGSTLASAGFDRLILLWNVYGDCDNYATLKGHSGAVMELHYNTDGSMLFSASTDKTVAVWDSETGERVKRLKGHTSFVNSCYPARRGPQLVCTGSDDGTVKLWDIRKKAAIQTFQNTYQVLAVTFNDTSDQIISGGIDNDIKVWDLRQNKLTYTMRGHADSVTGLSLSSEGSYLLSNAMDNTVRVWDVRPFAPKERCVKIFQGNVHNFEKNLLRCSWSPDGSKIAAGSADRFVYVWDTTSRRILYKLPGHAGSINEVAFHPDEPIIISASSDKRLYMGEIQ
UniProt Q96K58: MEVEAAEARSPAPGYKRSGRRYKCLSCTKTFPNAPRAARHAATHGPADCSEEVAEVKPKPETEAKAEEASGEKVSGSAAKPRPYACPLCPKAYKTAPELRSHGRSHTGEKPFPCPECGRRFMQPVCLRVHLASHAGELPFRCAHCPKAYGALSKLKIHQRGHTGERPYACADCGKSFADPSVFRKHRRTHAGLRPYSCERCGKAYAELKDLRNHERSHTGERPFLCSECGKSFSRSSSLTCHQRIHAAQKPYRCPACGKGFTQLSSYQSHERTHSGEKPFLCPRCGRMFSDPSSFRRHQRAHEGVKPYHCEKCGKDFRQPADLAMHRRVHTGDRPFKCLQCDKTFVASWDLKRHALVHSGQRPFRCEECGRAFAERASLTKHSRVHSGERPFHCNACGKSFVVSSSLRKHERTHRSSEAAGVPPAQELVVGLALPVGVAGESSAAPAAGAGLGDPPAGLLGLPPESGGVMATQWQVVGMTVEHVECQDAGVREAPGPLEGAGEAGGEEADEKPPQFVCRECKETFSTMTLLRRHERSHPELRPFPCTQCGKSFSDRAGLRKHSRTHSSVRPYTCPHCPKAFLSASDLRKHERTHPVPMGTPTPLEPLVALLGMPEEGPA
UniProt Q96CV9, whole entry: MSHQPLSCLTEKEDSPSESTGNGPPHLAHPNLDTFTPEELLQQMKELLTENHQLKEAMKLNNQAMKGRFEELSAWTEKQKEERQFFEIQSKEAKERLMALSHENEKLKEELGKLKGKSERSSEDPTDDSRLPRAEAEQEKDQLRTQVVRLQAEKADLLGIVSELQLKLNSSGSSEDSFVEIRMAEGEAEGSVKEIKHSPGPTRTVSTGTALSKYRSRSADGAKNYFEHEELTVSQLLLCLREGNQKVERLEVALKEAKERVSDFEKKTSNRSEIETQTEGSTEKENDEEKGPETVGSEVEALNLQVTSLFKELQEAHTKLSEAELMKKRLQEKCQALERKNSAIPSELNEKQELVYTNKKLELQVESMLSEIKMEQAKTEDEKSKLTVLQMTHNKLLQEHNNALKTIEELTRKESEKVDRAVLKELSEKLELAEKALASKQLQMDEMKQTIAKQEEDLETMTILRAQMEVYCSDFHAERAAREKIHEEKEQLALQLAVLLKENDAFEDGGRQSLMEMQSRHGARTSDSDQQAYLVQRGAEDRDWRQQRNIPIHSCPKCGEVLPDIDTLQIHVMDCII
UniProt Q96S55: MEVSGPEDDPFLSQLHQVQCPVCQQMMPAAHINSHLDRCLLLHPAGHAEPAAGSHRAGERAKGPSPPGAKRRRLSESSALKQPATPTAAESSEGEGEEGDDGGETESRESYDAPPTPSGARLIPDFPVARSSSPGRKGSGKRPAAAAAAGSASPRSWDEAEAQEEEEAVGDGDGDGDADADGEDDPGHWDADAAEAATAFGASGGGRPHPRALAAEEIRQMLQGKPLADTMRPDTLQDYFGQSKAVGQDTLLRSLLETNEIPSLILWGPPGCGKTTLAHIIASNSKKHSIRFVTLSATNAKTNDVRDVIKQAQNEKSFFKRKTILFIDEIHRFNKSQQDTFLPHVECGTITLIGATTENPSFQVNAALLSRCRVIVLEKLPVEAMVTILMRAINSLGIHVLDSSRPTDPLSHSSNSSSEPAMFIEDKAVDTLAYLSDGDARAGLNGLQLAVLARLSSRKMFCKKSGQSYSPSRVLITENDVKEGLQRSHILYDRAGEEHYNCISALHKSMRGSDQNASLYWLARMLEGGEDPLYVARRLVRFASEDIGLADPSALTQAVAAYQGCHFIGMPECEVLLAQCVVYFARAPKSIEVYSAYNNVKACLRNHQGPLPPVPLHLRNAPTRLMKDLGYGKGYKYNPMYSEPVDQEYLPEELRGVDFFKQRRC

What follows are targets tested with Nc1ncnc2c1ncn2[C@@H]1O[C@H](COP(=O)(O)OP(=O)(O)OP(=O)(O)O)[C@@H](O)[C@H]1O [adenosine triphosphate] (assay: NP40-soluble protein abundance relative to vehicle (solubility fold change) (ratio); higher = more soluble protein in presence of ATP). Details: concentration: 8mM.
Procedure, shortened: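 Data come from three independent experiments in which Dounce-homogenised Jurkat crude lysate was treated at eight concentrations from 0.1 to 10 mM. Treatment ran 10 min at room temperature and then 3 min at 37 °C, after which 0.8% NP40 and benzonase were added for 60 min at 4 °C before ultracentrifugation. The supernatant underwent TMT labelling and LC-MS/MS, and vsn-normalised intensities were expressed as fold change against the detergent-processed vehicle in each replicate.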

Target | NP40-soluble protein abundance
UniProt Q96DZ1 and related entries | 1.01 ± 0.058
UniProt Q96RQ3 and related entries | 1.01 ± 0.022
UHRF2 (UniProt Q96PU4) | 1.03 ± 0.023
TUBGCP3 (UniProt Q96CW5) | 1.13 ± 0.14
PTCD3 (UniProt Q96EY7) | 0.921 ± 0.14
UniProt Q96CS2 | 1.06 ± 0.081
AJUBA (UniProt Q96IF1) | 1.05 ± 0.033
DPH3 (UniProt Q96FX2) | 0.953 ± 0.13
UniProt Q96N46 and related entries | 1.13 ± 0.14
UniProt Q96JJ7 | 0.976 ± 0.017
MMAB (UniProt Q96EY8) | 0.9644 ± 0.0066
WDR92 (UniProt Q96MX6) | 1.03 ± 0.088
UniProt Q96KC2 | 1.01 ± 0.032
UniProt Q96PM5 and related entries | 1.01 ± 0.051
MCEE (UniProt Q96PE7) | 0.896 ± 0.027
PDLIM5 (UniProt Q96HC4) | 0.984 ± 0.082
UniProt Q96ST2 and related entries | 0.551 ± 0.035
UniProt Q96D71 and related entries | 1.04 ± 0.061

Target | NP40-soluble protein abundance
UniProt Q96S66 and related entries | 0.954 ± 0.054
UniProt Q96JG6 | 0.993 ± 0.05
EAF1 (UniProt Q96JC9) | 0.868 ± 0.048
UniProt Q96IJ6 and related entries | 1 ± 0.024
ANKRD27 (UniProt Q96NW4) | 1.01 ± 0.039
SNRNP40 (UniProt Q96DI7) | 1.48 ± 0.13
CCDC97 (UniProt Q96F63) | 0.934 ± 0.028
UniProt Q96K58 and related entries | 1.01 ± 0.051
UniProt Q96G23 | 0.948 ± 0.036
DHTKD1 (UniProt Q96HY7) | 1.06 ± 0.081
OPTN (UniProt Q96CV9) | 0.924 ± 0.024
METTL2A (UniProt Q96IZ6) | 0.924 ± 0.17
CCDC51 (UniProt Q96ER9) | 0.9488 ± 0.0044
UniProt Q96S55 and related entries | 1.03 ± 0.033
NSL1 (UniProt Q96IY1) | 0.952 ± 0.035
TRMT61A (UniProt Q96FX7) | 0.991 ± 0.049
PANX1 (UniProt Q96RD7) | 0.929 ± 0.063

Same assay, conditions: concentration: 10mM

Target | NP40-soluble protein abundance
UniProt Q96DZ1 and related entries | 0.981 ± 0.041
UniProt Q96RQ3 and related entries | 1.01 ± 0.032
UHRF2 (UniProt Q96PU4) | 1.05 ± 0.021
TUBGCP3 (UniProt Q96CW5) | 1.13 ± 0.15
PTCD3 (UniProt Q96EY7) | 0.908 ± 0.12
UniProt Q96CS2 | 0.863 ± 0.077
AJUBA (UniProt Q96IF1) | 1.02 ± 0.1
DPH3 (UniProt Q96FX2) | 0.942 ± 0.16
UniProt Q96N46 and related entries | 1.19 ± 0.14
UniProt Q96JJ7 | 0.981 ± 0.026
MMAB (UniProt Q96EY8) | 0.932 ± 0.034
WDR92 (UniProt Q96MX6) | 1.06 ± 0.093
UniProt Q96KC2 | 0.993 ± 0.031
UniProt Q96PM5 and related entries | 1.01 ± 0.052
MCEE (UniProt Q96PE7) | 0.87 ± 0.058
PDLIM5 (UniProt Q96HC4) | 0.964 ± 0.042
UniProt Q96ST2 and related entries | 0.556 ± 0.025
UniProt Q96D71 and related entries | 1.07 ± 0.044

Target | NP40-soluble protein abundance
UniProt Q96S66 and related entries | 0.926 ± 0.054
UniProt Q96JG6 | 0.996 ± 0.029
EAF1 (UniProt Q96JC9) | 0.863 ± 0.018
UniProt Q96IJ6 and related entries | 0.952 ± 0.047
ANKRD27 (UniProt Q96NW4) | 1.03 ± 0.039
SNRNP40 (UniProt Q96DI7) | 1.57 ± 0.12
CCDC97 (UniProt Q96F63) | 0.91 ± 0.056
UniProt Q96K58 and related entries | 1.011 ± 0.0076
UniProt Q96G23 | 0.978 ± 0.041
DHTKD1 (UniProt Q96HY7) | 1.01 ± 0.017
OPTN (UniProt Q96CV9) | 0.931 ± 0.012
METTL2A (UniProt Q96IZ6) | 0.921 ± 0.069
CCDC51 (UniProt Q96ER9) | 0.944 ± 0.029
UniProt Q96S55 and related entries | 1.07 ± 0.05
NSL1 (UniProt Q96IY1) | 0.955 ± 0.026
TRMT61A (UniProt Q96FX7) | 1.01 ± 0.037
PANX1 (UniProt Q96RD7) | 0.968 ± 0.091
